From patent publication US20240115654A1, “INTRAVENOUS ADMINISTRATION OF ENGINEERED ANTIMICROBIAL AMPHIPHILIC PEPTIDES” (priority 2021, published 2024)
Converted amounts (≈) assume the structure as drawn. Like-named read-outs stand apart in the source and are kept apart here. Part of at least one peptide drawing is inferred or uncertain, most often the ends. For some assays here: For at least one compound, name, drawing or mass did not settle the structure. Peptide text beside a SMILES is read from it.

What was measured:
[1] = tested on: Enterococcus faecium isolates (n = 104); details: Enterococcus faecium (n = 104)
Experimental: (§1) Comparator antibiotics were supplied by Micromyx, and stock solutions were prepared on the first day of testing using solvents recommended by CLSI (1). Stock solutions of all compounds were made at 40× the final testing concentration and stored at −80° C. prior to testing. Information regarding compound source, catalog and lot number, testing concentrations and drug diluent for the comparators and test agent are detailed below in Table 3.
The test organisms evaluated in this study consisted of clinical isolates from the Micromyx Repository and reference isolates from the American Type Culture Collection (ATCC; Manassas, VA). The clinical isolates were obtained from USA hospitals. Upon initial receipt at Micromyx, the organisms were sub-cultured onto an appropriate agar medium. Following incubation, colonies were harvested from these plates and cell suspensions prepared and frozen at −80° C. with a cryoprotectant. […] Plates were incubated at 35° C. overnight.
MIC values were determined using a broth microdilution procedure described by CLSI (1, 3).
(§2) The test articles and comparator compounds (300 μl at 40× the highest concentration to be tested) were dispensed into the appropriate wells in column 1. The Biomek 2000 was then used to make 2-fold serial dilutions in the mother plates from column 1 through column 11. The wells of Column 12 contained no drug and served as the organism growth control wells for the assay.
The daughter plates were completed on the Biomek FX instrument which transferred 5 μL of drug solution from each well of a mother plate to the corresponding well of each daughter plate in a single step. A standardized inoculum of each test organism was prepared per CLSI methods (1). The inoculum for each organism was dispensed into sterile reservoirs divided by length (Beckman Coulter), and the Biomek 2000 was used to inoculate the plates. Daughter plates were placed on the Biomek 2000 work surface in reverse orientation so that inoculation took place from low to high drug concentration.
Plates were stacked 3-4 high, covered with a lid on the top plate, placed in plastic bags, and incubated at 35° C. for 16 to 20 hrs. Following incubation, the microplates were removed from the incubator and viewed from the bottom using a plate viewer. […] The MIC was read and recorded as the lowest concentration of drug that inhibited visible growth of the organism.
Clinical breakpoints to determine percent resistance within a given organism group were obtained from CLSI (3), with the exception of colistin for K. pneumoniae, Enterobacter spp., and E. coli, which are only available from EUCAST.

E. coli = assay: Mouse E. coli complicated UTI infection model; type: in vivo, Swiss Webster mice; details: 2 mg/kg and 4 mg/kg iv, FIG. 19A and 19B
S. aureus = assay: Periprosthetic joint infection model, implant biofilm CFU; type: in vivo; details: mouse, intraperitoneal; SEQ ID NO:1 0.1-10 mg/kg; compared to untreated control mice, FIG. 16
Experimental: Periprosthetic joint infection was modeled in a mouse by placing an intra-articular K-wire through the medullary canal of the proximal femur followed by intra-articular inoculation with S. aureus. Animals were treated systemically with an intraperitoneal delivery of cefazolin, rifampin, or the exemplary peptide of SEQ ID NO: 1. Intraperitoneal delivery was chosen due to technical difficulties associated with intravenous delivery. Implant sonication and proximal femur homogenate were used to quantify viable bacteria.

P. aeruginosa = assay: Mouse P. aeruginosa infection (sepsis) model; type: in vivo, Swiss Webster mice
[2] = Precipitation during broth dilution testing (solubility control plate); type: physicochemical; details: at 128, 64 and 32 μg/mL in MHB II
[3] = tested on: Escherichia coli isolates (n = 101); details: Escherichia coli (n = 101)
Experimental: as §1
(§3) The test organisms evaluated in this study consisted of clinical isolates from the Micromyx Repository and reference isolates from the American Type Culture Collection (ATCC; Manassas, VA). The clinical isolates were obtained from USA hospitals. Upon initial receipt at Micromyx, the organisms were sub-cultured onto an appropriate agar medium. Following incubation, colonies were harvested from these plates and cell suspensions prepared and frozen at −80° C. with a cryoprotectant. Prior to testing, the isolates were streaked from frozen vials onto Trypticase Soy Agar with 5% sheep blood (Becton Dickenson [BD]; Sparks, MD; Lot Nos. 7173618, 7166759, 7208688, 72144895, 7228505 and Remel Lenexa, KS Lot No. 212574). Plates were incubated at 35° C. overnight.
(§4) Mueller Hinton II broth (MHB II; BD; Lot Nos. 6258541 and 7143896) was used for MIC testing of aerobic organisms.
(§5) MIC values were determined using a broth microdilution procedure described by CLSI (1, 3). Automated liquid handlers (Multidrop 384, Labsystems, Helsinki, Finland; Biomek 2000 and Biomek FX, Beckman Coulter, Fullerton CA) were used to conduct serial dilutions and liquid transfers.
as §2, with “To prepare the drug mother plates, which would provide the serial drug dilutions for the replicate daughter plates, the wells of columns 2-12 of standard 96-well microdilution plates (Costar 3795) were filled with 150 μl of the designated diluent for each row of drug. The test” for “The test”
(§6) The daughter plates were loaded with 185 μL per well of MHB II using the Multidrop 384. The daughter plates were completed on the Biomek FX instrument which transferred 5 μL of drug solution from each well of a mother plate to the corresponding well of each daughter plate in a single step. […]
(§7) Plates were stacked 3-4 high, covered with a lid on the top plate, placed in plastic bags, and incubated at 35° C. for 16 to 20 hrs. […] The MIC was read and recorded as the lowest concentration of drug that inhibited visible growth of the organism. […]

[4] = tested on: Klebsiella pneumoniae isolates (n = 101); details: Klebsiella pneumoniae (n = 101)
Experimental: as §1, §3, §4, §5
as §2, with “To prepare the drug mother plates, which would provide the serial drug dilutions for the replicate daughter plates, the wells of columns 2-12 of standard 96-well microdilution plates (Costar 3795) were filled with 150 μl of the designated diluent for each row of drug. The test” for “The test”
as §6, §7

[5] = tested on: Pseudomonas aeruginosa isolates (n = 109); details: Pseudomonas aeruginosa (n = 109)
Experimental: as §1, §3, §4, §5
as §2, with “To prepare the drug mother plates, which would provide the serial drug dilutions for the replicate daughter plates, the wells of columns 2-12 of standard 96-well microdilution plates (Costar 3795) were filled with 150 μl of the designated diluent for each row of drug. The test” for “The test”
as §6, §7

SMILES	MIC range [1]	E. coli load in bladder and kidney / protection from cUTI infection (E. coli)	reduction of implant biofilm CFU burden (sonicate culture) (S. aureus)	fatalities (P. aeruginosa; 3 mg/kg iv 1 h after P. aeruginosa challenge, 7 days)	protection from P. aeruginosa sepsis (survival) (P. aeruginosa; 1, 1.5, 3 and 4 mg/kg iv, 7 days)	minimum dose that effectively eradicated the infection (P. aeruginosa; iv 1 h after P. aeruginosa challenge, monitored 7 days, nine mice per group, FIG. 17) [mg/kg]	MIC range ([1]; listed as SEQ ID NO:1) [µg/mL]	precipitation during broth dilution testing [2]	MIC50 [3] [µg/mL]	MIC90 [3] [µg/mL]	Mode (MIC) [4] [µg/mL]	Mode (MIC) [5] [µg/mL]
CCC[C@@H]1C[C@@H](C(=O)N[C@@H]([C@H]2O[C@H](SC)[C@H](O)[C@@H](O)[C@H]2O)[C@H](C)Cl)N(C)C1 [Clindamycin]	≤0.15->16^	–	–	–	–	–	–	–	–	–	–	–
C[C@H]1c2cccc(O)c2C(=O)C2=C(O)[C@]3(O)C(=O)C(C(N)=O)=C(O)[C@@H](N(C)C)[C@@H]3[C@@H](O)[C@@H]21 [Doxycycline]	≤0.03-32 ^ μg/mL	–	–	–	–	–	–	–	–	–	–	–
CC(C)[C@H](NC(=O)[C@H](Cc1c[nH]c2ccccc12)NC(=O)[C@H](CCCNC(=N)N)NC(=O)[C@H](CCCNC(=N)N)NC(=O)[C@@H](NC(=O)[C@@H](NC(=O)[C@H](CCCNC(=N)N)NC(=O)[C@@H](NC(=O)[C@@H](NC(=O)[C@H](CCCNC(=N)N)NC(=O)[C@H](CCCNC(=N)N)NC(=O)[C@H](Cc1c[nH]c2ccccc12)NC(=O)[C@@H](NC(=O)[C@H](CCCNC(=N)N)NC(=O)[C@H](CCCNC(=N)N)NC(=O)[C@@H](NC(=O)[C@H](CCCNC(=N)N)NC(=O)[C@H](CCCNC(=N)N)NC(=O)[C@@H](NC(=O)[C@H](Cc1c[nH]c2ccccc12)NC(=O)[C@H](CCCNC(=N)N)NC(=O)[C@@H](N)CCCNC(=N)N)C(C)C)C(C)C)C(C)C)C(C)C)C(C)C)C(C)C)C(C)C)C(=O)N[C@@H](CCCNC(=N)N)C(=O)N[C@@H](CCCNC(=N)N)C(N)=O [SEQ ID NO: 1] (H-RRWVRRVRRVWRRVVRVVRRWVRR-NH2)	≤0.12-4 ^ μg/mL	effectively eradicated the infection	statistical significant reduction	one fatality out of nine mice treated	dose dependent protection	3	<0.12 to 4	Significant precipitation	2 (≈ 0.588 µM)	4 (≈ 1.18 µM)	8	8
